Results: article PMC4389229
No constants are given. Whether binding was seen depends on the method and setting. In cells and extracts the contact can be indirect. Some entries that bind do so weakly or less than the wild type. Where a sequence is shown, tags or fusion partners need not be part of it.

Chains of the proteins cited; added tags and fusions are not shown.
UniProt P24279: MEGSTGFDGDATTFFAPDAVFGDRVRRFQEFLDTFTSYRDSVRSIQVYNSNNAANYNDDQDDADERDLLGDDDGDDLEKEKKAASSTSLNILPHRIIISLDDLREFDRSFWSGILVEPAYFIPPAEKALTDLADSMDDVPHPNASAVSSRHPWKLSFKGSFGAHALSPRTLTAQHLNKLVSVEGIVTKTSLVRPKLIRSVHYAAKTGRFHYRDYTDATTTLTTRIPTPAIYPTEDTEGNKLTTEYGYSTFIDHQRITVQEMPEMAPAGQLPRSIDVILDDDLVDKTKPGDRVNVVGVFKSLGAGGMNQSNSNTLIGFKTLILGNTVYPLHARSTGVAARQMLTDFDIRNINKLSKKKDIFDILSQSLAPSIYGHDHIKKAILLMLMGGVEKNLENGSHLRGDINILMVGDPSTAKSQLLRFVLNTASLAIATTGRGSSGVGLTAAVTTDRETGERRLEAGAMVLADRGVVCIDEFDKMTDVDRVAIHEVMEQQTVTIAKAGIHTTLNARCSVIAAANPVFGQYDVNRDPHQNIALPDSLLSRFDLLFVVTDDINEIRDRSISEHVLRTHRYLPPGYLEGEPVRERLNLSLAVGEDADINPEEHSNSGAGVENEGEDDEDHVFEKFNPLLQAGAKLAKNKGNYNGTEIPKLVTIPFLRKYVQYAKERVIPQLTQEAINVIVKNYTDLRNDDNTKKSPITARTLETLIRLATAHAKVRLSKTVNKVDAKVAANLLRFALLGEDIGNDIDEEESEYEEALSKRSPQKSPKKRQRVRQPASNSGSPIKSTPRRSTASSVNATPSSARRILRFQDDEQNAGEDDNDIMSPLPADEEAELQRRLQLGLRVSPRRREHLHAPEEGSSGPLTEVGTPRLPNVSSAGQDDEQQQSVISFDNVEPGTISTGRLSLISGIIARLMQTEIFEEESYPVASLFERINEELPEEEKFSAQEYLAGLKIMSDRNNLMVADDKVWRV

T1: Cmr1-VC (S. cerevisiae) (UniProt Q12510)
T1 sequence: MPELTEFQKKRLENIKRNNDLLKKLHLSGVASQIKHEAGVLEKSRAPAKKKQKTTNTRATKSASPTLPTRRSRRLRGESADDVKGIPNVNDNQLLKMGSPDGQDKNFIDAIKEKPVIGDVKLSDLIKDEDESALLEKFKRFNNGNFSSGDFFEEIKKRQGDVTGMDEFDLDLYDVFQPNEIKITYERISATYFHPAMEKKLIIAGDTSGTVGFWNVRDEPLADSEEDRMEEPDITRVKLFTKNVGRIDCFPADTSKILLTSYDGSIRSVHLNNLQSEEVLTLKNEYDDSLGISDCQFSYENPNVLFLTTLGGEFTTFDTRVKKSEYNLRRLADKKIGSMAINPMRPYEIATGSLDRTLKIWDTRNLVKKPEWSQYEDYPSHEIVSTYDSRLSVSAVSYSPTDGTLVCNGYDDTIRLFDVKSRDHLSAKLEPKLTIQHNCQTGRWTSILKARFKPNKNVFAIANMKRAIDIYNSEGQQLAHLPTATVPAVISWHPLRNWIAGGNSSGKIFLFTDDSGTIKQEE

B1: Rfc3 (VN fusion) (protein, UniProt P38629 1-340)
chain: MSTSTEKRSKENLPWVEKYRPETLDEVYGQNEVITTVRKFVDEGKLPHLLFYGPPGTGKTSTIVALAREIYGKNYSNMVLELNASDDRGIDVVRNQIKDFASTRQIFSKGFKLIILDEADAMTNAAQNALRRVIERYTKNTRFCVLANYAHKLTPALLSRCTRFRFQPLPQEAIERRIANVLVHEKLKLSPNAEKALIELSNGDMRRVLNVLQSCKATLDNPDEDEISDDVIYECCGAPRPSDLKAVLKSILEDDWGTAHYTLNKVRSAKGLALIDLIEGIVKILEDYELQNEETRVHLLTKLADIEYSISKGGNDQIQGSAVIGAIKASFENETVKANV
B2: Rfc2 (VN fusion) (protein, UniProt P40348 1-353)
chain: MFEGFGPNKKRKISKLAAEQSLAQQPWVEKYRPKNLDEVTAQDHAVTVLKKTLKSANLPHMLFYGPPGTGKTSTILALTKELYGPDLMKSRILELNASDERGISIVREKVKNFARLTVSKPSKHDLENYPCPPYKIIILDEADSMTADAQSALRRTMETYSGVTRFCLICNYVTRIIDPLASRCSKFRFKALDASNAIDRLRFISEQENVKCDDGVLERILDISAGDLRRGITLLQSASKGAQYLGDGKNITSTQVEELAGVVPHDILIEIVEKVKSGDFDEIKKYVNTFMKSGWSAASVVNQLHEYYITNDNFDTNFKNQISWLLFTTDSRLNNGTNEHIQLLNLLVKISQL
B3: Pri1 (VN fusion) (protein, UniProt P10363 1-409)
chain: MTNSVKTNGPSSSDMEYYYKSLYPFKHIFNWLNHSPKPSRDMINREFAMAFRSGAYKRYNSFNSVQDFKAQIEKANPDRFEIGAIYNKPPRERDTLLKSELKALEKELVFDIDMDDYDAFRTCCSGAQVCSKCWKFISLAMKITNTALREDFGYKDFIWVFSGRRGAHCWVSDKRARALTDVQRRNVLDYVNVIRDRNTDKRLALKRPYHPHLARSLEQLKPFFVSIMLEEQNPWEDDQHAIQTLLPALYDKQLIDSLKKYWLDNPRRSSKEKWNDIDQIATSLFKGPKQDSHIIKLRECKEDLVLMTLYPKLDVEVTKQTIHLLKAPFCIHPATGNVCVPIDESFAPEKAPKLIDLQTEMEKNNDVSLTALQPFINQFQAYVSSLLKNELGSVKREREDDDEPASLDF

The molecules below were run against T1, Cmr1-VC (S. cerevisiae) (assay: split reporter; genome-wide bimolecular fluorescence complementation in living S. cerevisiae: Cmr1-VC query strain crossed to 5,809 VN-fusion strains, Venus fluorescence read by microscopy; Cmr1-VC with Mcm3-VN also imaged before and after 0.05% MMS for 2 h).

binding, binds:
Mcm3-VN (from UniProt P24279 1-971)
B1
B2
B3
